Drawing on patent publication US4168263 (dated 1979), this text covers step yield for two substances.

The star is where a group is joined. Cbz = O=C(OCc1ccccc1)*; Boc = CC(C)(C)OC(=O)*

This data set in a line: general procedure: solution-phase peptide synthesis; OSu active ester, Et3N. The settings on record: coupling step.

For the substance Boc-K(Cbz)K(Cbz)K(Cbz)G-OEt, the step yield stood at 72%.
For the substance Boc-K(Cbz)K(Cbz)K(Cbz)K(Cbz)G-OEt, the step yield is recorded as 73%.
